Data as given in PubChem BioAssay AID652259 (Drosophila RNAi Screening Center, 2013)
The screen tested about 22,000 reagents; this is a random part of those with a known target gene and a result. In the full data, 233 (1.1%) were called active. 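Light values are raw, unnormalised plate reads; the ratio scores behind the reporter calls were not deposited.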 The record does not give: the amount of reagent, the time to read-out, the dose of the treatment.

Aim: 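Genome-wide hunt for genes that control Wingless pathway activity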 (primary screen)
System: Drosophila clone 8 imaginal disc epithelial cells
Reagents: long dsRNA against Drosophila genes
Treatment: pathway stimulated by co-transfected Wingless expression plasmid
Detection: 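Dual luciferase reads per well after Wingless plasmid stimulation: reporter firefly light and Renilla control light; activity is firefly divided by Renilla, a ratio not deposited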
Direction: firefly reporter light: higher = more Wg reporter light, before normalisation; Renilla control light: higher = more transfected or surviving cells
Rule for the call: 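Strong candidates differ from their plate mean by at least two out of four per-plate statistical tests; weak candidates meet just one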
Calls: active = candidate regulator (raises or lowers reporter); inactive = not a candidate

{"target gene": "Socs44A (GeneID 35786)", "amplicon": "DRSC06828", "firefly reporter light, replicate 1": 3804, "firefly reporter light, replicate 2": 7088, "Renilla control light, replicate 1": 710, "Renilla control light, replicate 2": 2603, "Outcome": "inactive"}
{"target gene": "Nle (GeneID 33234)", "amplicon": "DRSC00763", "firefly reporter light, replicate 1": 5559, "firefly reporter light, replicate 2": 10708, "Renilla control light, replicate 1": 1898, "Renilla control light, replicate 2": 3577, "Outcome": "inactive"}
{"target gene": "Nepl5 (GeneID 33892)", "amplicon": "DRSC03241", "firefly reporter light, replicate 1": 7307, "Renilla control light, replicate 1": 4746, "Outcome": "inactive"}
{"target gene": "CG5348 (GeneID 36877)", "amplicon": "DRSC06933", "firefly reporter light, replicate 1": 7786, "Renilla control light, replicate 1": 3009, "Outcome": "inactive"}
{"target gene": "CG7907 (GeneID 42539)", "amplicon": "DRSC16339", "reporter change call, replicate 1": "Wg reporter activity lowered", "firefly reporter light, replicate 1": 40838, "Renilla control light, replicate 1": 7893, "Outcome": "inactive"}
{"target gene": "Gbeta76C (GeneID 40148)", "amplicon": "DRSC11174", "firefly reporter light, replicate 1": 7323, "Renilla control light, replicate 1": 3393, "Outcome": "inactive"}
{"target gene": "CG14607 (GeneID 40869)", "amplicon": "DRSC12551", "firefly reporter light, replicate 1": 17443, "Renilla control light, replicate 1": 4672, "Outcome": "inactive"}
{"target gene": "RpS4 (GeneID 39484)", "amplicon": "DRSC11272", "firefly reporter light, replicate 1": 4059, "Renilla control light, replicate 1": 1840, "Outcome": "inactive"}
{"target gene": "Or24a (GeneID 33623)", "amplicon": "DRSC00768", "firefly reporter light, replicate 1": 4180, "firefly reporter light, replicate 2": 7061, "Renilla control light, replicate 1": 1651, "Renilla control light, replicate 2": 2247, "Outcome": "inactive"}
{"target gene": "awd (GeneID 43739)", "amplicon": "DRSC16906", "firefly reporter light, replicate 1": 23649, "Renilla control light, replicate 1": 14481, "Outcome": "inactive"}
{"target gene": "Oatp30B (GeneID 34268)", "amplicon": "DRSC02727", "firefly reporter light, replicate 1": 12244, "Renilla control light, replicate 1": 2652, "Outcome": "inactive"}
{"target gene": "GlnRS (GeneID 45786)", "amplicon": "DRSC14140", "firefly reporter light, replicate 1": 7843, "firefly reporter light, replicate 2": 7296, "Renilla control light, replicate 1": 1172, "Renilla control light, replicate 2": 775, "Outcome": "inactive"}
{"target gene": "CG31752 (GeneID 35143)", "amplicon": "DRSC22599", "firefly reporter light, replicate 1": 6.19e5, "firefly reporter light, replicate 2": 5.53e5, "Renilla control light, replicate 1": 2.03e5, "Renilla control light, replicate 2": 1.44e5, "Outcome": "inactive"}
{"target gene": "CG17648 (GeneID 33357)", "amplicon": "DRSC00508", "firefly reporter light, replicate 1": 923, "firefly reporter light, replicate 2": 5973, "Renilla control light, replicate 1": 609, "Renilla control light, replicate 2": 2480, "Outcome": "inactive"}
{"target gene": "CG30385 (GeneID 246585)", "amplicon": "DRSC06031", "firefly reporter light, replicate 1": 2005, "firefly reporter light, replicate 2": 7256, "Renilla control light, replicate 1": 645, "Renilla control light, replicate 2": 3245, "Outcome": "inactive"}
{"target gene": "ash1 (GeneID 40133)", "amplicon": "DRSC11325", "firefly reporter light, replicate 1": 13104, "Renilla control light, replicate 1": 1924, "Outcome": "inactive"}

Reformatted: results already given.
Nepl5 (GeneID 33892) [DRSC03241]
- firefly reporter light, replicate 1: 7307
- Renilla control light, replicate 1: 4746
- Outcome: inactive

CG5348 (GeneID 36877) [DRSC06933]
- firefly reporter light, replicate 1: 7786
- Renilla control light, replicate 1: 3009
- Outcome: inactive

CG7907 (GeneID 42539) [DRSC16339]
- reporter change call, replicate 1: Wg reporter activity lowered
- firefly reporter light, replicate 1: 40838
- Renilla control light, replicate 1: 7893
- Outcome: inactive

The list goes on:
{"target gene": "Lmpt (GeneID 39889)", "amplicon": "DRSC09450", "firefly reporter light, replicate 1": 5332, "Renilla control light, replicate 1": 2048, "Outcome": "inactive"}
{"target gene": "Lmpt (GeneID 39889)", "amplicon": "DRSC09864", "firefly reporter light, replicate 1": 6832, "Renilla control light, replicate 1": 2640, "Outcome": "inactive"}
{"target gene": "Lmpt (GeneID 39889)", "amplicon": "DRSC09865", "firefly reporter light, replicate 1": 5824, "Renilla control light, replicate 1": 2211, "Outcome": "inactive"}
{"target gene": "Lmpt (GeneID 39889)", "amplicon": "DRSC09866", "firefly reporter light, replicate 1": 9395, "Renilla control light, replicate 1": 3885, "Outcome": "inactive"}
{"target gene": "Lmpt (GeneID 39889)", "amplicon": "DRSC11107", "firefly reporter light, replicate 1": 9789, "Renilla control light, replicate 1": 4189, "Outcome": "inactive"}
{"target gene": "Lmpt (GeneID 39889)", "amplicon": "DRSC21738", "firefly reporter light, replicate 1": 3.67e5, "firefly reporter light, replicate 2": 3.35e5, "Renilla control light, replicate 1": 1.33e5, "Renilla control light, replicate 2": 1.16e5, "Outcome": "inactive"}
{"target gene": "Lmpt (GeneID 39889)", "amplicon": "DRSC22921", "firefly reporter light, replicate 1": 1.18e6, "firefly reporter light, replicate 2": 1.18e6, "Renilla control light, replicate 1": 3.04e5, "Renilla control light, replicate 2": 65402, "Outcome": "inactive"}
{"target gene": "Mpc1 (GeneID 42268)", "amplicon": "DRSC14770", "firefly reporter light, replicate 1": 3377, "firefly reporter light, replicate 2": 6140, "Renilla control light, replicate 1": 1504, "Renilla control light, replicate 2": 1522, "Outcome": "inactive"}
{"target gene": "CG10384 (GeneID 37567)", "amplicon": "DRSC03933", "firefly reporter light, replicate 1": 20375, "Renilla control light, replicate 1": 9393, "Outcome": "inactive"}
{"target gene": "CG10384 (GeneID 37567)", "amplicon": "DRSC04067", "firefly reporter light, replicate 1": 3144, "firefly reporter light, replicate 2": 6369, "Renilla control light, replicate 1": 496, "Renilla control light, replicate 2": 2394, "Outcome": "inactive"}
